This is an account of results in PMC7819943, “Rice protein-binding microarrays: a tool to detect cis-acting elements near promoter regions in rice”.

This is one part of the list.

The test addresses T1, OsSMF1 (Oryza sativa, UniProt Q6ZLB0 1-436).
T1 sequence: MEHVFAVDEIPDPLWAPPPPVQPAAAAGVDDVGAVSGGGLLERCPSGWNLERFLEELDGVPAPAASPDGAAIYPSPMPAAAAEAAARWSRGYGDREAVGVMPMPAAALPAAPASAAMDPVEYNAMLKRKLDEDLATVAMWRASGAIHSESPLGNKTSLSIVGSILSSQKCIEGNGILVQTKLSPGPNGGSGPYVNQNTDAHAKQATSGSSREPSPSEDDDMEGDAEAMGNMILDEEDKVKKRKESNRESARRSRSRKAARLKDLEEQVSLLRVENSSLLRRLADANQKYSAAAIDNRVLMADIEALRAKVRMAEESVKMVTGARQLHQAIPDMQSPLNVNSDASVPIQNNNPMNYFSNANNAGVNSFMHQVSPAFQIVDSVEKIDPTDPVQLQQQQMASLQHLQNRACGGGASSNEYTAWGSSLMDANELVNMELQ
Description: protein-binding microarray (RPBM); PBS, 2% BSA, 51.3 ng/ul salmon testes DNA, 50 uM zinc acetate, 200 nM TF, 25 C, 1 h; high values mean tight binding. As to conditions: protein: recombinant; tags: N-terminal polyhistidine and DsRed monomer fusion (pET32a); chain copies: 2; label: CyDye5-dUTP incorporated in the synthesized complementary strand; 3' TTTTT single-stranded linker to array surface; dsDNA, one strand shown. A digest of the protocol:
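The binding signal is fluorescence intensity per feature, in arbitrary units, read on an Axon 4000B scanner. Polyhistidine- and DsRed-tagged transcription factors (N-terminal fusions) from E. coli BL21-CodonPlus were purified on Ni–NTA and applied at 200 nM for 1 h at 25 °C to a double-stranded, BSA-blocked custom Agilent array in buffer with 50 µM zinc acetate.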
For “CACGCGTCGTGCAGCCATTGGTGGCACGTCAGCATCATCGCGGAGTCACCTAGTGCAG”, the binding signal is 22400 fluorescence intensity (a.u.).
As for “AGACTAATGACAACATGCACTTTTAGGCGACGTGTATATACGGAGTCACCTAGTGCAG”, the binding signal was 3260 fluorescence intensity (a.u.).
As to “CCTAAGCTAAAGTTTGATGCCAAAATCGCATCGAGCTCACCGGAGTCACCTAGTGCAG”, the binding signal was 21400 fluorescence intensity (a.u.).
On to “ACATGCCATGTACACGTACAGTACACGAAAGCACAGACAACGGAGTCACCTAGTGCAG”, for which the binding signal was 4370 fluorescence intensity (a.u.).
Next, “ATAGGTTTCAAATATTGACAATGTTACTAGCTTGTGGTCCCGGAGTCACCTAGTGCAG”: 4540 fluorescence intensity (a.u.).
With “GACCTTGCCAGGCACCACTGCCTAAGGATCCCGGTAACATCGGAGTCACCTAGTGCAG”, the binding signal is 25000 fluorescence intensity (a.u.).
Consider “TCTCGCTCAACGTGTTACGTGTGGTTTGTATAAACGCAGGCGGAGTCACCTAGTGCAG”, for which the binding signal is 4850 fluorescence intensity (a.u.).
In the case of “CTGCGTTAGTTGTTGCGTCCCGCCTTGTCCGTCCTTGTCACGGAGTCACCTAGTGCAG”, the binding signal was 4160 fluorescence intensity (a.u.).
On to “GATCAGAGATGAGGGCGGGCGGGTTGACTGGGAGAGTAGACGGAGTCACCTAGTGCAG”, for which the binding signal was 4160 fluorescence intensity (a.u.).
To “CAGAGGTTCCTTTGCCTAGAAAGCCAAGTCATTCACTACTCGGAGTCACCTAGTGCAG” belongs 3390 fluorescence intensity (a.u.); to “TCTGATCGATGAGTATAAATTTATATACCTTGTTCGTTCGCGGAGTCACCTAGTGCAG”, 20500 fluorescence intensity (a.u.).
As for “ACACCTCTCCCGTCGCAAGCCACCTCACCCTCACCTCGCCCGGAGTCACCTAGTGCAG”, the binding signal is 5030 fluorescence intensity (a.u.).
Turning to “CGGGAGAAATGTGGATAAGAATAATAAGGTTGACAAATGCCGGAGTCACCTAGTGCAG”, the binding signal is 4080 fluorescence intensity (a.u.).
“CTAATCGGCCTGTAATCCTTGAGCAGGATAGGCGATTCTGCGGAGTCACCTAGTGCAG”: the binding signal is 15100 fluorescence intensity (a.u.).
Next, “CCTTGAATCCCTTAGGTTTCGTCTACTTCGCCAGCATGGTCGGAGTCACCTAGTGCAG”: 4030 fluorescence intensity (a.u.); “AGGAGATAGAGGTAGAGAGGGTGAGGTGGAGGAAATTGAACGGAGTCACCTAGTGCAG”: 4160 fluorescence intensity (a.u.); “GTATCTTGACCGGCGGAGTCATCGTCAGCGGTCAGCTCCTCGGAGTCACCTAGTGCAG”: 5590 fluorescence intensity (a.u.).
In the case of “CAGCCACTGGGAAGCGGTGTCATCGTCACCGCCGATGACCCGGAGTCACCTAGTGCAG”, the binding signal is 5120 fluorescence intensity (a.u.).
As for “GCTAGGACTGAATGTGGATGTGACACGTTCTACATCCAAGCGGAGTCACCTAGTGCAG”, the binding signal was 5510 fluorescence intensity (a.u.).
Turning to “TTGTCCTGCGTGGCGGCTTAGTCAGCATGGGACTCACGTGCGGAGTCACCTAGTGCAG”, the binding signal was 20100 fluorescence intensity (a.u.).
To “ACCTAATAACTCTACACTTTTATTACGTGACACTGCTTTTCGGAGTCACCTAGTGCAG” belongs 4180 fluorescence intensity (a.u.).
In the case of “CGTCTCCTCGTCCTCATCCACGGCGAGTCCGCGTCATCCACGGAGTCACCTAGTGCAG”, the binding signal is 8280 fluorescence intensity (a.u.).
To “TATGAAATATGTAACAGATCATGACTTGGGTATTACGTTTCGGAGTCACCTAGTGCAG” belongs 3410 fluorescence intensity (a.u.).
